Data taken from patent publication US5019492A, “Photographic element and process comprising a blocked photographically useful compound” (Eastman Kodak Company, priority 1989, dated 1991).

What was measured:
[1] = Photographic element with blocked ETA compound: sensitometry after C-41 development with and without hydroxylamine sulfate; conditions: for Relative Speed: control = 100; for Relative Gamma Difference: vs control
Excerpt: A green sensitized silver bromoiodide gelatin emulsion (0.7 micron grain size) was mixed with a coupler dispersion comprising cyan coupler C-1 dispersed in half its weight of di-n-butyl phthalate and a blocked ETA compound of the invention dispersed in twice its weight of N,N-diethyl lauramide. The resulting mixture was coated on a photographic film support according to the following format (amounts of each component are given in mg/m^2 with silver halide counted as silver):
OVERCOAT Gelatin (5382); bis(vinylsulfonyl-
LAYER: methyl) ether hardener (2% of
EMULSION Gelatin (3229); green-sensitized
LAYER: AgBrI emulsion (877); cyan coupler
C-1 (969); and a blocked ETA
Each photographic element was imagewise exposed to light through a graduated density test object in a commercial sensitometer to provide a developable latent image (3000° K. light source, 0-4 step wedge, with Wratten 99 plus 0.5ND filter. Wratten is a trademark). The resulting photographic film was then developed and processed in a commercial C-41 development process of Eastman Kodak Company, U.S.A. without the final stabilizer step. This process and the processing compositions for the process are described in, for example, British Journal of Photography Annual 1988, Pages 191-199. The development process was carried out with and without hydroxylamine sulfate (HAS) in the color developer solution.
Densitometric measurements made with red light are shown in Table II wherein the values in parentheses are for the samples processed in the developer without HAS. Dmin is the average fog level. Gamma is the maximum contrast between two density points which are 0.4 log E apart, taken as the difference from the gamma of the control sample which contains no blocked ETA compound. Photographic speed is also taken relative to the control sample (set at 100) and is measured at 0.15 density above fog.

[2] = Unblocking of shifted masking coupler in fixed unexposed strips (density at 520 nm)
Experimental: Each compound was dispersed in an equal weight of 2,4-di-t-pentylphenol and coated in the following format on a poly(ethylene terephthalate) film support (unless otherwise specified, component amounts are given in mg/m^2 with silver halide counted as silver):
(§1) OVERCOAT Gelatin (2691); bis(vinylsulfonyl-
(§2) LAYER: methyl) ether hardener (1.75% of
EMULSION Gelatin (3767); unsensitized AgBr
LAYER: emulsion (906); masking coupler
Unexposed strips of this coated element were soaked 1 minute in a fixing solution to remove silver halide, washed, and then immersed in one of the following processing solutions at temperatures conventionally used for processing in a KODAK C-41 process:
P-1: pH 10 carbonate buffer
P-2: pH 10 carbonate buffer with 0.024M hydroxylamine sulfate
P-3: C-41 color developer with hydroxylamine sulfate omitted
P-4: C-41 color developer solution containing hydroxylamine sulfate

[3] = Blocked masking coupler with main image coupler C-1 in a monochrome layer: green density and red image parameters; conditions: 0.108 mmole/m^2; for Green Density @ Exp. High: high exposure; for Green Density @ Exp. High / Green Density @ Exp. Low: processed; for Green Density @ Exp. Low: low exposure; for Red Image Spd.: relative to control at 100; for Green Density @ Exp. None: unexposed fixed strips
Excerpt: Dispersions were made as in Example 3 but with added cyan coupler C-1 dispersed in half its weight of di-n-butyl phthalate. These were then coated in the following format (unless otherwise specified, component amounts are given in mg/m^2 with silver halide counted as silver):
as §1, §2
EMULSION Gelatin (3767); unsensitized AgBrI
LAYER: emulsion (1615); cyan image
coupler C-1 (754): masking coupler
FILM SUPPORT: with antihalation backing
Film strips of the above coatings were step-exposed through a Wratten 12 (minus blue) filter, processed (C-41) as in Example 2, and the photographic parameters measured as presented in Table V (density to green light was measured for unexposed fixed strips and for low and high exposure areas of processed strips; photographic speed of the red image is relative to the control at 100): […]

[4] = 0.215 mmole/m^2, developer with HAS
[5] = 0.215 mmole/m^2, developer without HAS
[6] = 0.431 mmole/m^2, developer with HAS
[7] = 0.431 mmole/m^2, developer without HAS
[8] = 1.076 mmole/m^2, developer with HAS
[9] = 1.076 mmole/m^2, developer without HAS
[10] = P-1 (pH 10 carbonate buffer): 10 Minutes
[11] = P-2 (pH 10 carbonate buffer with 0.024M hydroxylamine sulfate): 10 Minutes
[12] = P-3 (C-41 color developer, hydroxylamine sulfate omitted): 10 Minutes
[13] = P-4 (C-41 color developer containing hydroxylamine sulfate): 1 Minute
[14] = P-4 (C-41 color developer containing hydroxylamine sulfate): 10 Minutes

Compound: CC1(C)CN(c2ccccc2)N=C1OC(=O)C(C)(C)C(=O)c1ccccc1 [Compound 1]
- Dmin [1, 4]: 0.07
- Relative Speed [1, 4]: 102
- Relative Gamma Difference [1, 4]: -0.01
- Dmin [1, 5]: 0.06
- Relative Speed [1, 5]: 100
- Relative Gamma Difference [1, 5]: -0.06
- Dmin [1, 6]: 0.07
- Relative Speed [1, 6]: 103
- Relative Gamma Difference [1, 6]: -0.08
- Dmin [1, 7]: 0.06
- Relative Speed [1, 7]: 101
- Relative Gamma Difference [1, 7]: -0.09
- Dmin [1, 8]: 0.07
- Relative Speed [1, 8]: 105
- Relative Gamma Difference [1, 8]: -0.54
- Dmin [1, 9]: 0.05
- Relative Speed [1, 9]: 100
- Relative Gamma Difference [1, 9]: -0.35

Compound: CC1(C)CN(c2ccccc2)N=C1OC(=O)C1(C)CCCCC1=O (centres unmarked) [Compound 2]
- Dmin [1, 4]: 0.09
- Relative Speed [1, 4]: 108
- Relative Gamma Difference [1, 4]: +0.10
- Dmin [1, 5]: 0.06
- Relative Speed [1, 5]: 100
- Relative Gamma Difference [1, 5]: -0.02
- Dmin [1, 6]: 0.09
- Relative Speed [1, 6]: 109
- Relative Gamma Difference [1, 6]: -0.04
- Dmin [1, 7]: 0.06
- Relative Speed [1, 7]: 100
- Relative Gamma Difference [1, 7]: -0.01
- Dmin [1, 8]: 0.09
- Relative Speed [1, 8]: 109
- Relative Gamma Difference [1, 8]: -0.53
- Dmin [1, 9]: 0.06
- Relative Speed [1, 9]: 101
- Relative Gamma Difference [1, 9]: -0.18

Compound: CCC(C)(C)c1ccc(OCCCCNC(=O)c2cc(Oc3ccc(N=Nc4cc(OC(C)C(=O)O)c5ccccc5c4O)cc3)c3ccccc3c2O)c(C(C)(C)CC)c1 (centres unmarked) [Compound 3U, reference compound]
- Density at 520 nm ([2]; Fixed Only): 1.25
- Density at 520 nm [2, 10]: 1.25
- Density at 520 nm [2, 11]: 1.25
- Density at 520 nm [2, 12]: 1.25
- Density at 520 nm [2, 13]: 1.25
- Density at 520 nm [2, 14]: 1.25
- Red Image Dmax [3]: 2.59
- Red Image Gamma [3]: 2.24
- Green Density @ Exp. High [3]: 0.40
- Green Density @ Exp. Low [3]: 0.24
- Red Image Spd. [3]: 82
- Green Density @ Exp. None [3]: 0.21

Compound: CCC(C)(C)c1ccc(OCCCCNC(=O)c2cc(Oc3ccc(N=Nc4cc(OC(C)C(=O)O)c5ccccc5c4OC(=O)C4(C)CCCCC4=O)cc3)c3ccccc3c2O)c(C(C)(C)CC)c1 (centres unmarked) [Compound 3]
- Density at 520 nm ([2]; Fixed Only): 0.02
- Density at 520 nm [2, 10]: 0.02
- unblocking without dinucleophile ([2]; P-1 or P-3, extended treatment): not unblocked by extended treatment
- Density at 520 nm [2, 11]: 1.10
- unblocking with hydroxylamine ([2]; P-2 and P-4): the blocking group is readily removed
- Density at 520 nm [2, 12]: 0.02
- Density at 520 nm [2, 13]: 0.50
- Density at 520 nm [2, 14]: 1.25
- Red Image Dmax [3]: 2.62
- Red Image Gamma [3]: 2.42
- Green Density @ Exp. High [3]: 0.43
- Green Density @ Exp. Low [3]: 0.26
- Red Image Spd. [3]: 99
- Green Density @ Exp. None [3]: 0.08
